Source: paper PMC8929146
These are yes or no findings as the source states them, for the method shown. Binding seen in cells or lysates may run through a third protein. Some binding calls cover weakened binding; strength is not graded here.

The chains behind the UniProt entries cited, without tags or fusion partners. Residues count along the entry.
UniProt P51532: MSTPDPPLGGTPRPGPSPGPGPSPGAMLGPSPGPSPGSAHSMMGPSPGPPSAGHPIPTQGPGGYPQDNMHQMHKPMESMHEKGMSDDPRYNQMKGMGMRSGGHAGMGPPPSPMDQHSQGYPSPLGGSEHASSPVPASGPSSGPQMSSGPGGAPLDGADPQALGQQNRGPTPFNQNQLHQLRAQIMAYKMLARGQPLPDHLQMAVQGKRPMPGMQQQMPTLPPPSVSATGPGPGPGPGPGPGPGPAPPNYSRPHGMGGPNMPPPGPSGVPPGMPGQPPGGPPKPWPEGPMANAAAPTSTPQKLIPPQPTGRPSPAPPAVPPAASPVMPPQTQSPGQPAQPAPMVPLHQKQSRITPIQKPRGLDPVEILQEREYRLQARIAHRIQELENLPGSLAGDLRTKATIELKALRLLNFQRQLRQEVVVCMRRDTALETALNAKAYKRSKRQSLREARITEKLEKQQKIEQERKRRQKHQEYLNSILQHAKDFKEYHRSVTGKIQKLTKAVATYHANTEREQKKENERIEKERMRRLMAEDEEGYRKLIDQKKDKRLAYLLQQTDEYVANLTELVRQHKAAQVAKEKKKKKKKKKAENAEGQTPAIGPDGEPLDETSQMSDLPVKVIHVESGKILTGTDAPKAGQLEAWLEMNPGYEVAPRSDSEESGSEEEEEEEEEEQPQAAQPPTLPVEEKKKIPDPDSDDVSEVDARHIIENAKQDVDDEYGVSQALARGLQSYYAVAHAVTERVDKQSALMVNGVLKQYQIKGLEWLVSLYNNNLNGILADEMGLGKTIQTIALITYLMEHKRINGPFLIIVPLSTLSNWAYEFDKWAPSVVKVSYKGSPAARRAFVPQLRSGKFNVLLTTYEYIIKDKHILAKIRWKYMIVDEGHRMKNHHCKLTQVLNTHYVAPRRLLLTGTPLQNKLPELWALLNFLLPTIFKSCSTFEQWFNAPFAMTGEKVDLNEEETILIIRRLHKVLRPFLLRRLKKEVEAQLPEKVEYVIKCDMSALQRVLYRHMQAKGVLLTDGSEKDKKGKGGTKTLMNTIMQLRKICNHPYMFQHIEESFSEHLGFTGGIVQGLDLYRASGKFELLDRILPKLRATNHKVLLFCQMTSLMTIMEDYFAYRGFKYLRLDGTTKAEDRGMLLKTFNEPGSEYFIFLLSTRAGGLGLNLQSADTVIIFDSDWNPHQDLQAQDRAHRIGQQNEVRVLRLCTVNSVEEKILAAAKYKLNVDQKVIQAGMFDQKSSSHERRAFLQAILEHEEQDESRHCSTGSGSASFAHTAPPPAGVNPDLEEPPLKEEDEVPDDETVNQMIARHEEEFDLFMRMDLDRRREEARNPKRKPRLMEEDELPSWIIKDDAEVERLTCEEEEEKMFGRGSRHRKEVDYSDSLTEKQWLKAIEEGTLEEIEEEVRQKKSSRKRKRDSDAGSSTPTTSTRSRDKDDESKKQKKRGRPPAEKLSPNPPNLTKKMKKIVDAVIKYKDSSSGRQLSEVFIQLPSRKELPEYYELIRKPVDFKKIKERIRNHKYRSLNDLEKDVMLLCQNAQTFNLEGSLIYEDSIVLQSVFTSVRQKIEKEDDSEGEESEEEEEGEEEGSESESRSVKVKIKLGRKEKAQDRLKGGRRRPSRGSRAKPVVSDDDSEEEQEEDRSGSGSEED
UniProt Q03164: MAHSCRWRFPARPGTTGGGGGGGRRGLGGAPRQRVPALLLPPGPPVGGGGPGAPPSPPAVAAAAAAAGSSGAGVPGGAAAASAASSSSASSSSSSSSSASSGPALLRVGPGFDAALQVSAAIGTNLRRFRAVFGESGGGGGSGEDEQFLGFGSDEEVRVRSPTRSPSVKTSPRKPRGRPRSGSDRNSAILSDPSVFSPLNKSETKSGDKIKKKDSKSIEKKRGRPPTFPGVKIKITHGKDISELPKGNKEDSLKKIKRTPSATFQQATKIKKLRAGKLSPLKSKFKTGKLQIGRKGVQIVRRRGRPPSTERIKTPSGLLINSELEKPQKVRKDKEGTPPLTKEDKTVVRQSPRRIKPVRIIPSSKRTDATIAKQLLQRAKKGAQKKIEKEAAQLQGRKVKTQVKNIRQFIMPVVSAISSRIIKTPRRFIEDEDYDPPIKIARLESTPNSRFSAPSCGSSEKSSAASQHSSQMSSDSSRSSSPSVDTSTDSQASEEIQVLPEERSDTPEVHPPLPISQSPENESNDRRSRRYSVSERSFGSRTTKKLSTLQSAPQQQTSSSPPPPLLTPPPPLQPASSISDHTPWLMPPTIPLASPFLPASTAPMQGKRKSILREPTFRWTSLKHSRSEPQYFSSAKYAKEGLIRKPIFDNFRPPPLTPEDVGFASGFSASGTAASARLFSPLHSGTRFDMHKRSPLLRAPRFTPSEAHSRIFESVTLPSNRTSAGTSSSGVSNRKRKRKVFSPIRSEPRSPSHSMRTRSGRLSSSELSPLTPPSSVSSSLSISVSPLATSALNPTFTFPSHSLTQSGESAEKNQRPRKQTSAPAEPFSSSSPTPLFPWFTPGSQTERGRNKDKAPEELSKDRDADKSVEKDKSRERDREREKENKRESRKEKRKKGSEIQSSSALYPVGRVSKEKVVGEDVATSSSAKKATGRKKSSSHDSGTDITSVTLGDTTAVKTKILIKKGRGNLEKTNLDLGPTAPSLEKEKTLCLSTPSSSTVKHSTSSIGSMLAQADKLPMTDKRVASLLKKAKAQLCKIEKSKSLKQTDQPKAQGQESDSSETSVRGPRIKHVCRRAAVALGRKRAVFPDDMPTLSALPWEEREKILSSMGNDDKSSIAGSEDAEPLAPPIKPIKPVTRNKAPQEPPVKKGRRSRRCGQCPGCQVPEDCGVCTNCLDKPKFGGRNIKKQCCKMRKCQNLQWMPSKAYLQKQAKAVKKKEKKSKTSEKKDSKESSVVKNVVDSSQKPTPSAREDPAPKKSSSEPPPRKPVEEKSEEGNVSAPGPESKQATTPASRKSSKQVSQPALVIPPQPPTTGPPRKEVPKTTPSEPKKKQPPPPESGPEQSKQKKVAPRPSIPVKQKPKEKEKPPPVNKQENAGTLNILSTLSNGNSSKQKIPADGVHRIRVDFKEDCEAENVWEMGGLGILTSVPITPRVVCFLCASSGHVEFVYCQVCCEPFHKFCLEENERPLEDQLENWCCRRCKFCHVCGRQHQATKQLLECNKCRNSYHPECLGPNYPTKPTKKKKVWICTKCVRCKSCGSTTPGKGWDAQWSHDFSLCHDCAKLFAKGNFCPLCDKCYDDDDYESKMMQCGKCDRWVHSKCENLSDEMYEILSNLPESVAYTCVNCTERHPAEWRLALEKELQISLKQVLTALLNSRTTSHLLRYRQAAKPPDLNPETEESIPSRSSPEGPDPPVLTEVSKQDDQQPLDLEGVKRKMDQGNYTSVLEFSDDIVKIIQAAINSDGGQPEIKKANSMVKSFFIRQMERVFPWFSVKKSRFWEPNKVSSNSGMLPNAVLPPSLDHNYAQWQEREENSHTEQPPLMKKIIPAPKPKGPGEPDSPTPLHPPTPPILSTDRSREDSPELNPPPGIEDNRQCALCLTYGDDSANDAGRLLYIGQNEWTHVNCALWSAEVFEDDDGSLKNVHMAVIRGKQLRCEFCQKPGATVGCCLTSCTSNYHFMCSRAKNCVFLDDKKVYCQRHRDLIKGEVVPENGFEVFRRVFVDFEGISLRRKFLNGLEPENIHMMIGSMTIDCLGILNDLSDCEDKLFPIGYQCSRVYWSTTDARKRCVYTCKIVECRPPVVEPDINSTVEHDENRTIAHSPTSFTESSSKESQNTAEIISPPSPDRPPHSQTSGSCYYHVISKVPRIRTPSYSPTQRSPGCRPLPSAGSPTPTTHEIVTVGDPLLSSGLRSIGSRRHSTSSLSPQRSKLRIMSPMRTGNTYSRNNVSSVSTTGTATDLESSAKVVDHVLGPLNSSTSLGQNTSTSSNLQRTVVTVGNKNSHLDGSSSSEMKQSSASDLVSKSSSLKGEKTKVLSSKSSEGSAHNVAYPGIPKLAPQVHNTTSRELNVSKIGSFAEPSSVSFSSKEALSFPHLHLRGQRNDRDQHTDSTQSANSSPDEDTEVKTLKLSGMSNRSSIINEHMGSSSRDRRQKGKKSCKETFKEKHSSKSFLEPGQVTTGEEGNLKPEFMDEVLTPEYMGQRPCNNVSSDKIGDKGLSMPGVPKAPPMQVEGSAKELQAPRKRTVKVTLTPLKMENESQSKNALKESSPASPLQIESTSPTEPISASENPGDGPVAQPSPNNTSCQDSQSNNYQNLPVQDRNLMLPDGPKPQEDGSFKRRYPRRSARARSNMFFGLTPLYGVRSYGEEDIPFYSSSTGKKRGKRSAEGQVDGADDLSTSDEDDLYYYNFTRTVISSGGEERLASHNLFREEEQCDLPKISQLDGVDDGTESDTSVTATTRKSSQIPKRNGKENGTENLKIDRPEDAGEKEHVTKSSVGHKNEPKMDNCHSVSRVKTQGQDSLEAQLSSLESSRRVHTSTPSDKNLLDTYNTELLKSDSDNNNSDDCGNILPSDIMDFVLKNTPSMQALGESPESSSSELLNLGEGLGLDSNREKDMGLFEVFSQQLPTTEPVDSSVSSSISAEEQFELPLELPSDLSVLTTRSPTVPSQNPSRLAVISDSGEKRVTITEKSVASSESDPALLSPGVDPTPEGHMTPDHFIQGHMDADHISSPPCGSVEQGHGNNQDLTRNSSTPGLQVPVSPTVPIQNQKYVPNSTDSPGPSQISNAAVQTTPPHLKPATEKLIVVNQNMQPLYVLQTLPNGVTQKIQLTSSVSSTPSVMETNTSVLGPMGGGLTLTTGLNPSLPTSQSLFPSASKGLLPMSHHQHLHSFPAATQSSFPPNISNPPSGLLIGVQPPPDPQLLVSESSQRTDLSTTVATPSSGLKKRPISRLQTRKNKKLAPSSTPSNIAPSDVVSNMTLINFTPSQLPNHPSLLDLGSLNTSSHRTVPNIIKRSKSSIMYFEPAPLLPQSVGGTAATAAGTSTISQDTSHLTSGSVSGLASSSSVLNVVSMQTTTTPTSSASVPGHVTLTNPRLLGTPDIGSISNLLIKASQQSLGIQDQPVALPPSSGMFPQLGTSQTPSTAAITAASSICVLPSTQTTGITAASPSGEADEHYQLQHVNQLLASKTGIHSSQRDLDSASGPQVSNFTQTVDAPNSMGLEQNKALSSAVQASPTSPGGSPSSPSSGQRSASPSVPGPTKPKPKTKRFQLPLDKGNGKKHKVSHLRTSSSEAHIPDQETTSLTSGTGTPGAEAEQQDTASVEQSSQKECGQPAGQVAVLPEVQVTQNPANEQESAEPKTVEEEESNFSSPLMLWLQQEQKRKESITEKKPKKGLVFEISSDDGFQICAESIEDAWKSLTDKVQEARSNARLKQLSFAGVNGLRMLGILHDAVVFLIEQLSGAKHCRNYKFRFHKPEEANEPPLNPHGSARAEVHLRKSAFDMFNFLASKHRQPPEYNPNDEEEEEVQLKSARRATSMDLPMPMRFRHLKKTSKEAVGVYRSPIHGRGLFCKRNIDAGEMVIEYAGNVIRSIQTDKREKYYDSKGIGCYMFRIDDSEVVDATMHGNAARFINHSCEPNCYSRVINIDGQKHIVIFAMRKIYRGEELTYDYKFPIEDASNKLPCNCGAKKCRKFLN
UniProt P35869, residues 11-848: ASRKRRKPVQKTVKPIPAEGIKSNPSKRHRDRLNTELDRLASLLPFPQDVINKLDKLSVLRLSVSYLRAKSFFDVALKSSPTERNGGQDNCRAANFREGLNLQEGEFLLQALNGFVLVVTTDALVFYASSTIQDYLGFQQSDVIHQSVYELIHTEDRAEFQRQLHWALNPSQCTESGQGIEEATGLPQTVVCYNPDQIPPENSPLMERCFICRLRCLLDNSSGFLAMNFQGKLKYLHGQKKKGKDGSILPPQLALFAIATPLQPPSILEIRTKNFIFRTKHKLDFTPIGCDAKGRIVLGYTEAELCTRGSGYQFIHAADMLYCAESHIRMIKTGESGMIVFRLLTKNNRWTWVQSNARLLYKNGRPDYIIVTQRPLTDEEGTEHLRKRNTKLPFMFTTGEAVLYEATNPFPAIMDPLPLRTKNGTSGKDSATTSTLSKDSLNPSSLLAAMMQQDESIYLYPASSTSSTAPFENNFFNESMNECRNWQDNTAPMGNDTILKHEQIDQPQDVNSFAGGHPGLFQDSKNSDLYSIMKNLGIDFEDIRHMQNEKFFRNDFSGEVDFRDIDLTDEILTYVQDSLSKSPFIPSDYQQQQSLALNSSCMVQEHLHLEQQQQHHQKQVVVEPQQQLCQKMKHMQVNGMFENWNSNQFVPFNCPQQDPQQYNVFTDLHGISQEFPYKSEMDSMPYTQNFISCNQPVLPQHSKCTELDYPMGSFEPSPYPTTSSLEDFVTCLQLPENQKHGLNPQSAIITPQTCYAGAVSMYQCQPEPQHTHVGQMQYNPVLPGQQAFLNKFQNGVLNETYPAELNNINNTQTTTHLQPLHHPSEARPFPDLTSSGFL

Key:
[1] = biological target: BRG1 (human (endogenous in ARPE-19)) (UniProt P51532); assay: co-IP; endogenous proteins in total extracts of ARPE-19 cells treated with 10 nM TCDD or vehicle, RIPA buffer; immunoprecipitation with anti-AHR, anti-BRG1 or anti-MLL1 antibody or normal IgG, then immunoblotting
[2] = biological target: MLL1 (human (endogenous in ARPE-19)) (UniProt Q03164); assay: as above

- binding [1]: binds
- binding [2]: binds
Substance: Aryl hydrocarbon receptor (from UniProt P35869 11-848)
